# Laboratory results as given in the supplement of paper PMC10735217.
# Values joined by “and” are separate entries in the source; they are usually repeats but may differ in a detail not shown here. Equal values may be shown once. Where a name gives a salt, the structure may show the parent alone. Some of the results follow. This data set is noisy: repeats of one test often differ as much as different tests do.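 The human kidney-derived cells carry a stably integrated construct of eight TEAD-binding elements driving luciferase, read by luminescence in a drug-repurposing library screen. A compound counts as a hit when its signal is more than five robust Z scores above the plate mean.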
# Tested on: HEK293A TEAD-LUC reporter
# Test: TEAD-luciferase reporter activity (YAP activation), robust Z score vs plate; higher = stronger YAP/TEAD activation
# Details: 24 h
SMILES,TEAD-luciferase reporter activity (compound concentration: 200 nM),TEAD-luciferase reporter activity (compound concentration: 2 uM),TEAD-luciferase reporter activity (compound concentration: 10 uM)
CC(C)=CCC/C(C)=C/CC/C(C)=C/CC/C(C)=C/C=C/C=C(\C)CC/C=C(\C)CC/C=C(\C)CCC=C(C)C [trans-Phytoene],inactive: 2.56,inactive: -0.37,inactive: 0.275
CCC(C)[C@@H]1NC(=O)[C@H](Cc2ccc(O)cc2)N(C)C(=O)CCCSC[C@@H](C(=O)N2CCC[C@H]2C(=O)N[C@@H](CC(C)C)C(=O)NCC(N)=O)NC(=O)[C@H](CC(N)=O)NC(=O)[C@H](CCC(N)=O)NC1=O (some centres undefined) [carbetocin],inactive: -2.5,inactive: -0.591,inactive: 0.818
O=C(O)C1(c2ccc(-c3ccc(Cl)c(Cl)c3)c(F)c2)CC1,inactive: 2.03,inactive: -1.72,inactive: 3.71
CC(C)CCC[C@@H](C)[C@H]1CC[C@H]2[C@@H]3CCC4=C/C(=N/O)CC[C@]4(C)[C@H]3CC[C@]12C [olesoxime],inactive: -1.04,inactive: -0.271,inactive: 1.19
CCCCN(CC)c1cc(C)nc2c1NC(=O)CN2c1ccc(OC)nc1OC [CRF-1 antags],–,inactive: -0.154,–
"CCCCN(CC)c1cc(C)nc2c1NC(=O)CN2c1ccc(OC)nc1OC [CRF-1 antags, BMS]",inactive: -0.0192,–,inactive: -0.795
CCCC(=O)OCC(=O)[C@@]1(O)CC[C@H]2[C@@H]3CCC4=CC(=O)CC[C@]4(C)[C@H]3[C@@H](O)C[C@@]21C,inactive: -0.648,inactive: 1.08,active: 6.44
O=C1NC2(Cc3ccccc31)CN(C(=O)C1CCCCC1)C2,inactive: -2,–,inactive: -1.03
CN(Cc1ccccc1C(F)(F)F)C1CCc2ccccc21 (centres undefined),inactive: -1.51,–,inactive: -1.49
CC(C)(c1ccc(O)cc1)c1ccc(O)cc1,inactive: -0.926,–,inactive: -0.574
CC(C)(c1ccc(O)cc1)c1ccc(O)cc1 [Bisphenol A],–,inactive: -0.574,–
COc1cc(O)ccc1CCCc1ccc(O)cc1,inactive: 0.00437,inactive: -0.382,inactive: -0.427
C=CCn1c(N)cc(=O)n(CC)c1=O,inactive: 0.631,active: 5.9,inactive: -0.278
NCCCC(N)(C(=O)O)C(F)F (racemic) [DL-alpha-Difluoromethylornithine hydrochloride],inactive: -1.62,–,inactive: -0.748
N#Cc1ccc(C(C(O)Cc2ccc(F)cc2)n2cncn2)cc1 (centres undefined),inactive: -0.957,inactive: 0.127,inactive: -1.21
CCS(=O)(=O)Nc1ccc(Oc2ccc(F)cc2F)c(-c2cn(C)c(=O)c3[nH]ccc23)c1,active: 29.7,active: 12.4,active: 19.1
CCCCCCCCCCCCCCC[C@@H](O)[C@H](CO)NC(C)=O [Cedefingol],inactive: 1.49,–,inactive: 1.38
CCCCCCCCCCCCCCC[C@@H](O)[C@H](CO)NC(C)=O,–,inactive: -1.13,–
COCCOC(=O)CN1CCC(NC(=O)c2cc(Cl)c(N)cc2OC)CC1,inactive: -1.07,inactive: -0.694,inactive: -0.944
COc1cc(NCCCCCCN2CCN(CCC(C)O)CC2)c2ncccc2c1 (centres undefined) [Moxipraquine],inactive: -1.05,–,inactive: 0.389
CN[C@H]1[C@H](O)C[C@H]2[C@@H]3CCc4cc(O)ccc4[C@H]3CC[C@@]21C,inactive: -1.4,inactive: -0.552,inactive: -0.422
CC(C)=CCC[C@](C)(O[C@@H]1O[C@H](CO)[C@@H](O)[C@H](O)[C@H]1O)[C@H]1CC[C@]2(C)[C@@H]1[C@H](O)C[C@@H]1[C@@]3(C)CC[C@H](O)C(C)(C)[C@@H]3CC[C@]12C [20-O-beta-D-Glucopyranosyl-20(S)-protopanaxadiol],inactive: -0.752,inactive: -1.08,inactive: -0.741
CC(C)(C)C(=O)Oc1cc2c(s1)CC[N+]([O-])(Cc1ccccc1Cl)C2 (centres undefined),inactive: -1.45,inactive: -0.505,inactive: -1.69
CN(C)CCN(Cc1ccc(Cl)cc1)c1ccccn1 [Chloropyramine],inactive: 0.0154,inactive: 0.627,inactive: 1.29
C[C@H](Cc1cc2c(c(C(N)=O)c1)N(CCCO)CC2)NCCOc1ccccc1OCC(F)(F)F [silodosin],inactive: -1.17,inactive: -1.33,inactive: 3.35
O=C(O)[C@]1(Cc2cccc(Nc3nccs3)n2)CC[C@@H](Oc2cccc(Cl)c2F)CC1,inactive: 2.49,inactive: -1.82,inactive: 0.884
Cc1ccc2c(c1)nc1cc(Nc3ccc(Cl)cc3)/c(=N/C3CCCCCCC3)cc-1n2-c1ccc(Cl)cc1,inactive: -1.78,inactive: -1.74,inactive: 1.07

SMILES,TEAD-luciferase reporter activity (compound concentration: 200 nM),TEAD-luciferase reporter activity (compound concentration: 2 uM),TEAD-luciferase reporter activity (compound concentration: 10 uM)
CC1=C(c2ccc(-n3ccnc3)cc2)NNC(=O)C1,inactive: 0.112,inactive: -1.28,inactive: -0.917
Cc1cc(Oc2ccc3nc(COc4ccc(Cc5sc(O)nc5O)cc4)n(C)c3c2)cc(C)c1N [2016-03-02: Efatutazone hydrochloride],inactive: -0.167,–,active: 7.37
Cc1cc(Oc2ccc3nc(COc4ccc(Cc5sc(O)nc5O)cc4)n(C)c3c2)cc(C)c1N [_:_2016-03-02: Efatutazone hydrochloride],–,inactive: 0.819,–
Cc1cc2c(OCC(CNC(C)(C)C)OC(=O)c3ccccc3)cccc2[nH]1 (centres undefined) [bopindolol],–,inactive: -0.902,–
Cc1cc2c(OCC(CNC(C)(C)C)OC(=O)c3ccccc3)cccc2[nH]1 (centres undefined) [Bopindolol malonate],inactive: -1.93,–,inactive: -1.36
COc1cc2[nH]c(=O)c3n[nH]nc3c(=O)c2cc1OC [metabolite of ME-3301],inactive: -1.38,inactive: 1.79,inactive: -0.989
CC(C)c1ccc2c(CCCCNS(=O)(=O)c3ccc(Cl)cc3)cc(S(=O)(=O)O)c-2cc1,inactive: -1.23,inactive: 0.0429,inactive: 1.19
CCCn1c(=O)c2[nH]c(C3CCCC3)nc2n(CCC)c1=O,inactive: 1.43,inactive: 1.16,inactive: 2.97
CCCN(Cc1ccc(-c2ccccc2-c2nnn[nH]2)cc1)c1ncccc1C(=O)O,inactive: -0.96,inactive: -1.11,inactive: -0.875
CSc1nn2c(C)cc(C)nc2c1S(=O)(=O)c1ccccc1,inactive: 1.65,inactive: -1.21,inactive: 2.3
O=C1c2c(c3c4ccc(O)cc4n([C@@H]4O[C@H](CO)[C@@H](O)[C@H](O)[C@H]4O)c3c3[nH]c4cc(O)ccc4c23)C(=O)N1NC(CO)CO,inactive: -1.65,inactive: -1.78,inactive: 0.355
COc1cc(C2C(C#N)=C(N)Oc3c2ccc(N)c3N)cc(Br)c1OC (centres undefined) [Crolibulin],active: 5.72,active: 7.51,inactive: 3.62
NCCCNCCCCNCCCN,active: 5.01,inactive: -0.184,inactive: -0.921
CCCCCCCC(=O)OCCCC,inactive: 1.07,inactive: 0.0305,inactive: -1.42
O=C(O)CSc1nnc(Br)n1-c1ccc(C2CC2)c2ccccc12 [lesinurad],inactive: -1.85,inactive: -0.341,inactive: -1.39
CC1c2ccccc2Cn2cc3c(c21)C(=O)c1cccc(OP(=O)(O)OCc2ccccc2)c1C3=O (centres undefined) [Fosquidone],inactive: -0.763,inactive: -0.0995,inactive: -1.03
N[C@H]1CC[C@H](c2ccc(Cl)c(Cl)c2)c2ccccc21 [Dasotraline],inactive: 3.19,inactive: 1.65,inactive: 1.15
Cn1cnc2c1c(=O)[nH]c(=O)n2C,inactive: -0.0797,inactive: -0.806 and inactive: -0.996,inactive: -0.624
"O=C(NC[C@H](O)CO)c1ccncc1Nc1ccc(I)cc1F [anticancer, Merck KGaA]",inactive: -0.764,inactive: -0.347,inactive: -0.671
CC(=O)N1Cc2ccccc2CC12CCCN(C(=O)Cc1ccc(O)cc1)C2 (centres undefined),inactive: -1.2,–,inactive: 0.327
Cc1c(Cl)cccc1Nc1ccccc1C(=O)O [tolfenamic acid],–,inactive: -1.1,–
Cc1c(Cl)cccc1Nc1ccccc1C(=O)O [Tolfenamic Acid],inactive: -0.406,–,inactive: 0.794
NC[C@@H]1O[C@H](C23CC4CC(CC(C4)C2)C3)Cc2c1ccc(O)c2O,inactive: -1.46,inactive: -0.681,inactive: -0.392
CCOc1ccn(-c2ccc(F)cc2)c(=O)c1C(=O)Nc1ccc(Oc2ccnc(N)c2Cl)c(F)c1,inactive: -1.08,inactive: -1.28,inactive: -0.715
COc1cc2c(N3CCN(C(=O)Nc4ccc(OC(C)C)cc4)CC3)ncnc2cc1OCCCN1CCOCC1,inactive: -1.1,inactive: -0.977,inactive: 0.726
CC(=O)[C@H]1CC[C@H]2[C@@H]3CC=C4C[C@@H](OS(=O)(=O)O)CC[C@]4(C)[C@H]3CC[C@]12C,inactive: -0.376,inactive: 0.0451,inactive: 0.851
CC(=O)C1=C([O][Pt-2]2([O]C3=C(C(C)=O)C(=O)O[C@H]3C)[NH2+][C@@H]3CCCC[C@H]3[NH2+]2)[C@H](C)OC1=O,inactive: -0.97,inactive: -0.704,inactive: 1.58

# Some of the entries above, set out differently:
SMILES	TEAD-luciferase reporter activity (compound concentration: 200 nM)	TEAD-luciferase reporter activity (compound concentration: 2 uM)	TEAD-luciferase reporter activity (compound concentration: 10 uM)
Cc1cc2c(OCC(CNC(C)(C)C)OC(=O)c3ccccc3)cccc2[nH]1 (centres undefined) [bopindolol]	–	inactive: -0.902	–
CCCn1c(=O)c2[nH]c(C3CCCC3)nc2n(CCC)c1=O	inactive: 1.43	inactive: 1.16	inactive: 2.97
CCOc1ccn(-c2ccc(F)cc2)c(=O)c1C(=O)Nc1ccc(Oc2ccnc(N)c2Cl)c(F)c1	inactive: -1.08	inactive: -1.28	inactive: -0.715
